Measured values: article doi:10.1101/2019.12.16.877498

Sequences of proteins named here, by UniProt entry; tags and fusion partners are left off. A change or cut given only in a name is not applied to a line headed by its entry.
UniProt Q8TDG2: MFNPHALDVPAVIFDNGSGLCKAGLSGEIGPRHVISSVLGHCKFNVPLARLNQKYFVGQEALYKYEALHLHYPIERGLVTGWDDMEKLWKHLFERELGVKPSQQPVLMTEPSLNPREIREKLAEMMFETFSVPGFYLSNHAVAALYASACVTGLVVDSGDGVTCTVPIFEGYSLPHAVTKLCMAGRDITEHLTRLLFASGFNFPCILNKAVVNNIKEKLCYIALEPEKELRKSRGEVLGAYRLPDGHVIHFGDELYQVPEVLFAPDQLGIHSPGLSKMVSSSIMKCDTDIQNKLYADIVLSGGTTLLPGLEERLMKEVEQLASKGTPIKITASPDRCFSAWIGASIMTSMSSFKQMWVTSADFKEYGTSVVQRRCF
UniProt O95816: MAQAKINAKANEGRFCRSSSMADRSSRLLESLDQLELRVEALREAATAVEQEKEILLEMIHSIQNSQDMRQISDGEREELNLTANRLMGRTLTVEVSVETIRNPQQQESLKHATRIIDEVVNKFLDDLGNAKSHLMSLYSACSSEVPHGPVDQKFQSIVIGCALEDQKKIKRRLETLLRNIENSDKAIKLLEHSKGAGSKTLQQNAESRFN
UniProt P11142: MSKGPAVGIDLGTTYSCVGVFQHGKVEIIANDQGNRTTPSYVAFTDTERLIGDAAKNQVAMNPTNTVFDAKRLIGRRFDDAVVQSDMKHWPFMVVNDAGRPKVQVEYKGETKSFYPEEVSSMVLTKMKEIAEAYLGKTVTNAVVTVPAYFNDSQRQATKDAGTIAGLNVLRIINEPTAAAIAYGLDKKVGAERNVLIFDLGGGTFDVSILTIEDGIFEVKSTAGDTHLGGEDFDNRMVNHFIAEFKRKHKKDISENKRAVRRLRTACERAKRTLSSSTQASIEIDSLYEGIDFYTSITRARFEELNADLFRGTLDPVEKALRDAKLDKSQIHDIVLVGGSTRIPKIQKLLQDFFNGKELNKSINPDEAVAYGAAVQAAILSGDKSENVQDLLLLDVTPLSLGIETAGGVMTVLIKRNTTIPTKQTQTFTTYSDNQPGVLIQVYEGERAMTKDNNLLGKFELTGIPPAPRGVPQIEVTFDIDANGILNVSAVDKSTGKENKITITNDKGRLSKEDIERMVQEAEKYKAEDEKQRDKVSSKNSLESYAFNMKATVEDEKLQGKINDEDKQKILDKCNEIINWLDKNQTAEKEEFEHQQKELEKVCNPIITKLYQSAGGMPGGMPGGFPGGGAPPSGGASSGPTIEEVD
UniProt P23258: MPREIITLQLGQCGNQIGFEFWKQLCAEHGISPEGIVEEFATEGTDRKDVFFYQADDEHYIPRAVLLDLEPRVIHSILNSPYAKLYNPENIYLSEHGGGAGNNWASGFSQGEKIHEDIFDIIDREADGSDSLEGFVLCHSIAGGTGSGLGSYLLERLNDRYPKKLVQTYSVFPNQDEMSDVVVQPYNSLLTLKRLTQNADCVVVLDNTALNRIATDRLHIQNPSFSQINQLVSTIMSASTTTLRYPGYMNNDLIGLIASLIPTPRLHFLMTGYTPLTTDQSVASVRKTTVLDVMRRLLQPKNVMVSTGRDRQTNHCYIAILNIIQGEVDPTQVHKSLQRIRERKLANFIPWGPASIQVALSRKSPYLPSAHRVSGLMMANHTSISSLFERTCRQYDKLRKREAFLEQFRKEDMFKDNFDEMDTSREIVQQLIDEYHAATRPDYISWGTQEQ

B1: EHD4, endogenous (protein, UniProt Q9H223 1-541)
chain: MFSWMGRQAGGRERAGGADAVQTVTGGLRSLYLRKVLPLEEAYRFHEFHSPALEDADFENKPMILLVGQYSTGKTTFIRYLLEQDFPGMRIGPEPTTDSFIAVMYGETEGSTPGNALVVDPKKPFRKLSRFGNAFLNRFMCSQLPNQVLKSISVIDSPGILSGEKQRISRGYDFCQVLQWFAERVDRIILLFDAHKLDISDEFSEAIKAFRGQDDKIRVVLNKADQVDTQQLMRVYGALMWSLGKVINTPEVLRVYIGSFWAQPLQNTDNRRLFEAEAQDLFRDIQSLPQKAAVRKLNDLIKRARLAKVHAYIISYLKKEMPSVFGKENKKRELISRLPEIYIQLQREYQISAGDFPEVKAMQEQLENYDFTKFHSLKPKLIEAVDNMLSNKISPLMNLISQEETSTPTQLVQGGAFDGTTEGPFNQGYGEGAKEGADEEEWVVAKDKPVYDELFYTLSPINGKISGVNAKKEMVTSKLPNSVLGKIWKLADCDCDGMLDEEEFALAKHLIKIKLDGYELPSSLPPHLVPPSHRKSLPKAD
B2: Septin2 (protein, UniProt Q15019 1-361)
chain: MSKQQPTQFINPETPGYVGFANLPNQVHRKSVKKGFEFTLMVVGESGLGKSTLINSLFLTDLYPERVIPGAAEKIERTVQIEASTVEIEERGVKLRLTVVDTPGYGDAINCRDCFKTIISYIDEQFERYLHDESGLNRRHIIDNRVHCCFYFISPFGHGLKPLDVAFMKAIHNKVNIVPVIAKADTLTLKERERLKKRILDEIEEHNIKIYHLPDAESDEDEDFKEQTRLLKASIPFSVVGSNQLIEAKGKKVRGRLYPWGVVEVENPEHNDFLKLRTMLITHMQDLQEVTQDLHYENFRSERLKRGGRKVENEDMNKDQILLEKEAELRRMQEMIARMQAQMQMQMQGGDGDGGALGHHV
B3: Septin9 (protein, UniProt Q9UHD8 1-586)
chain: MKKSYSGGTRTSSGRLRRLGDSSGPALKRSFEVEEVETPNSTPPRRVQTPLLRATVASSTQKFQDLGVKNSEPSARHVDSLSQRSPKASLRRVELSGPKAAEPVSRRTELSIDISSKQVENAGAIGPSRFGLKRAEVLGHKTPEPAPRRTEITIVKPQESAHRRMEPPASKVPEVPTAPATDAAPKRVEIQMPKPAEAPTAPSPAQTLENSEPAPVSQLQSRLEPKPQPPVAEATPRSQEATEAAPSCVGDMADTPRDAGLKQAPASRNEKAPVDFGYVGIDSILEQMRRKAMKQGFEFNIMVVGQSGLGKSTLINTLFKSKISRKSVQPTSEERIPKTIEIKSITHDIEEKGVRMKLTVIDTPGFGDHINNENCWQPIMKFINDQYEKYLQEEVNINRKKRIPDTRVHCCLYFIPATGHSLRPLDIEFMKRLSKVVNIVPVIAKADTLTLEERVHFKQRITADLLSNGIDVYPQKEFDEDSEDRLVNEKFREMIPFAVVGSDHEYQVNGKRILGRKTKWGTIEVENTTHCEFAYLRDLLIRTHMQNIKDITSSIHFEAYRVKRLNEGSSAMANGMEEKEPEAPEM

These molecules were tested against Actin-Related Protein-Testis1 (ARP-T1), wild type, tagged with Myc-DDK (human) (UniProt Q8TDG2) (assay: affinity purification with mass spectrometry).

Molecule	binding
Bcl2-associated athanogen (BAG2) protein (from UniProt O95816 1-211)	binds
heat shock cognate 71 kDa protein (Hsc70) (from UniProt P11142 1-646)	binds
γ-Tubulin (from UniProt P23258)	binds
B1	binds
B2	binds
B3	binds

Results are given in words; binding and its absence hold for the method and conditions named. In cells and extracts the contact can be indirect. A yes stands for co-enrichment or nearness to the bait. Other partners may have been found.
